For 35 compounds, AC50 results are on record in PubChem BioAssay AID1487 (National Center for Advancing Translational Sciences (NCATS), 2009).

The experiment can be described thus: qHTS Assay for Modulators of Lamin A Splicing. As to conditions: HeLa LMNA splicing GFP/RFP minigene ratio, 48 h. The essentials: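 S3 HeLa cells stably expressing lamin A-EGFP splicing minigene plus DsRed2, 600 cells/well, 48 h compound exposure at 37C. Laser-scanning cytometry; analysed as GFP (500-530 nm)/RFP (575-640 nm) total intensity ratio; 0.5% DMSO vehicle.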
In general terms: qHTS replaces the single test concentration by a dilution series.

The mark [1] stands for this setting: measured here: GFP splicing reporter channel.
Where [2] appears, read: measured here: RFP viability control channel.

Some of the results follow. These are further read-outs of the screen, such as a control signal, another cell line or another target. No call is given for them. The list favours compounds with an active or inconclusive main result. Potencies come from curve fits of mixed quality, noted in brackets.

The term AC50 denotes the midpoint of the concentration-response curve, whichever way the signal moves. Regarding `COc1ccc(N2CCN(C(=O)CCc3c(C)nn(-c4ccc(N5CCCC5)nn4)c3C)CC2)cc1`, the AC50 runs as follows: under setting [1], 0.0447 µM [falling, full curve]; under setting [2], 0.1 µM [falling, full curve].

Turning to `COc1ccc(Nc2nc(NCc3ccco3)nc(N/N=C/c3ccc(O)cc3)n2)cc1`, the concentration at half-maximal activity (AC50) is 35.5 µM [falling, partial curve] under setting [1] and 25.1 µM [falling, partial curve, poor fit] under setting [2].

Turning to `CCOC(=O)c1c(C)[nH]c(C(=O)N/N=C\c2ccccc2Cl)c1C`, the AC50 under setting [2] is 8.91 µM [rising, partial curve].

With `CCN(CC)C(=O)CSc1nc(N)c2c3c(sc2n1)CC(C)CC3` (stereo not given), the concentration at half-maximal activity (AC50) under setting [2] was 35.5 µM [rising, single point].

On to `CCn1c2ccccc2c2cc(CN3CCN(C(=O)c4ccco4)CC3)ccc21`, for which the AC50 by setting is: under setting [1], 0.0891 µM [falling, full curve, poor fit]; under setting [2], 6.31 µM [falling, single point].

As to `Cc1cccc(N/C(N)=N/c2nc(C(F)(F)F)cc(C(F)(F)F)n2)c1`, the concentration at half-maximal activity (AC50) under setting [1] was 0.00316 µM [rising, full curve, poor fit].

With `CCN(CC)S(=O)(=O)c1cccc(S(=O)(=O)c2cccc(S(=O)(=O)N(CC)CC)c2)c1`, the concentration at half-maximal activity (AC50) under setting [1] is 11.2 µM [rising, single point].

Regarding `CCOCC(=O)Nc1ccccc1C(=O)N1CCOCC1`, the AC50 under setting [2] is 3.55 µM [rising, partial curve, poor fit].

For the compound `Cc1ccc(-n2ncc(C(=O)N3CCN(c4cccc(C)c4)C(C)C3)c2C2CCN(C(=O)OC(C)(C)C)CC2)cc1` (stereo not given), the AC50 under setting [2] was 22.4 µM [rising, single point].

For the compound `Cc1ccc(C2C(C(=O)O)c3ccccc3C(=O)N2C)c(C)c1` (stereo not given), the half-maximal activity concentration (AC50) runs as follows: under setting [1], 7.08 µM [falling, partial curve, poor fit]; under setting [2], 7.08 µM [falling, full curve, poor fit].

For `Cc1ccc(-c2noc(CCCC(=O)N3CCOCC3)n2)cc1`, under setting [2], the AC50 was 0.0631 µM [rising, full curve, poor fit].

In the case of `COc1ccccc1-c1nc(NCc2ccccc2)c2ccccc2n1`, the AC50 is, setting by setting: under setting [1], 25.1 µM [falling, single point]; under setting [2], 22.4 µM [falling, partial curve].

`C/C(=N\NC(=S)NCC(C)(C)C)c1cc(F)cc(F)c1O`: the AC50 reads like this: under setting [1], 2.51 µM [falling, full curve, poor fit]; under setting [2], 1.41 µM [falling, partial curve].

As to `Cn1c(SCC(=O)Nc2cc(C(C)(C)C)nn2-c2ccccc2)nc2ccccc21`, under setting [2], the AC50 was 17.8 µM [rising, partial curve].

Consider `O=C(Nc1c(F)cccc1F)c1cnc(N2CCN(c3ccccn3)CC2)c2ccccc12`, for which the half-maximal activity concentration (AC50) under setting [2] is 22.4 µM [rising, single point].

As to `COc1ccc(OC)c(/C=N/NC(=O)c2cc(-c3ccc(C)o3)nc3ccccc23)c1`, under setting [1], the half-maximal activity concentration (AC50) was 35.5 µM [rising, single point].

For `CCOC(=O)N1CCc2c(sc(NC(=O)c3ccc(S(=O)(=O)N4CCCC4)cc3)c2C#N)C1`, under setting [2], the AC50 is 3.55 µM [rising, single point].

For `COC(=O)N/N=C\c1cc(Br)ccc1OCc1ccccc1`, the AC50 under setting [1] is 11.2 µM [rising, partial curve, poor fit] and the AC50 under setting [2] was 35.5 µM [rising, single point].

Regarding `Cc1cc(Nc2cccc([N+](=O)[O-])c2)n2c(nc3ccccc32)c1C#N`, the AC50 under setting [2] was 2.82 µM [rising, full curve].

In the case of `CCOC(=O)c1cc(-c2cccnc2)nn1-c1ccccc1`, under setting [1], the AC50 is 35.5 µM [falling, partial curve, poor fit].

For `Cc1ccc(C(=O)N2CCc3cc(CNS(=O)(=O)c4ccc(Cl)s4)ccc32)cc1`, the concentration at half-maximal activity (AC50) under setting [1] is 0.631 µM [rising, partial curve, poor fit].

Turning to `Cc1ccc(C)c(N2CCN(C(=O)C3CCN(c4nc(-c5ccc(C(C)C)cc5)no4)CC3)CC2)c1`, under setting [2], the AC50 was 5.01 µM [falling, full curve, poor fit].

`Cc1cccc(CNc2nc(-c3ccccc3CN(C)C)nc3ccccc23)c1`: the AC50 under setting [1] was 7.08 µM [rising, partial curve, poor fit].

On to `O=C(CN1CCN(S(=O)(=O)c2cc(Cl)ccc2Cl)CC1)Nc1cccc(F)c1`, for which the AC50 under setting [2] was 22.4 µM [rising, single point].

`O=C(c1cncc(Br)c1)N1CCN(c2ccc([N+](=O)[O-])cc2)CC1`: the concentration at half-maximal activity (AC50) is, setting by setting: under setting [1], 8.91 µM [rising, partial curve, poor fit]; under setting [2], 12.6 µM [rising, partial curve, poor fit].

Regarding `CC(C)Oc1c(Br)cc(Br)cc1/C=N/NC(N)=S`, the AC50 is 7.94 µM [rising, partial curve, poor fit] under setting [1] and 10 µM [rising, partial curve] under setting [2].

As to `COc1ccc(C2CC(c3cccs3)=NN2C(=O)c2ccc(Br)o2)cc1` (stereo not given), the AC50 under setting [2] was 25.1 µM [rising, single point].

Turning to `CC(=O)c1ccc(-c2ccc(C(=O)NC3CCCCCC3)o2)cc1`, the AC50 under setting [1] was 12.6 µM [falling, partial curve].

As for `O=C(CSc1ccccn1)Nc1nc2c(ccc3ccccc32)s1`, under setting [2], the concentration at half-maximal activity (AC50) was 14.1 µM [rising, single point].

Take `COc1ccc(S(=O)(=O)n2cnc3cc(C)c(C)cc32)cc1`: the AC50 under setting [2] is 12.6 µM [rising, single point].

As for `CCOC(=O)CSC1=C(C#N)C(c2ccc3c(c2)OCO3)CC(=O)N1` (stereo not given), the half-maximal activity concentration (AC50) under setting [2] was 35.5 µM [rising, single point].

Consider `CCCCOC(=O)Cn1c(=O)c2c(nc(Br)n2Cc2ccccc2)n(C)c1=O`, for which the concentration at half-maximal activity (AC50) under setting [2] is 15.8 µM [rising, single point].

On to `O=C(Nc1nncs1)c1cccc(S(=O)(=O)N2CCc3ccccc32)c1`, for which the concentration at half-maximal activity (AC50) under setting [1] was 12.6 µM [falling, partial curve, poor fit].

Regarding `COc1cc(C(=O)Nc2nc(-c3cccs3)cs2)cc(OC)c1OC`, the AC50 by setting is: under setting [1], 25.1 µM [falling, single point]; under setting [2], 35.5 µM [falling, single point].

Turning to `N#Cc1c(NC(=O)c2cnn3cccnc23)sc2c1CCCC2`, the concentration at half-maximal activity (AC50) under setting [1] was 0.158 µM [falling, full curve, poor fit].
